Data source: PubChem BioAssay AID1508597 (Cure First, 2020)
The deposit covers about 2,100 reagents; shown is an unselected part. 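Calls flag viability under 80% in either arm, not effects specific to rucaparib; the reference for percent is not stated.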 A number with no mark means an inactive call. No sequences are given here. Not given: the 100% reference.

Screen: 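Knock-downs altering ovarian cancer cell survival with or without PARP inhibitor rucaparib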 (primary screen)
System: human ovarian carcinoma lines grown from tumours: OCI-P5x (papillary serous) and OCI-C5x (clear cell)
Knock-down reagent: siRNA pool against human genes, 1.25 pmol siRNA per well
Duration: 72 h or 96 h, depending on the cell culture
Challenge: rucaparib 20 µM (about IC30) or vehicle, present until read-out
Measured: 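Luminescent ATP-based viability assay read 72 or 96 h after transfection, depending on culture, given as normalised percent viability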
Scale: viability, normalised: higher = more viable cells remaining
Hit rule: 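Active when normalised viability falls below 80 percent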
Meaning of the calls: active = viability under 80%; inactive = viability 80% or more

Target gene	PubChem SID	rucaparib or vehicle	cell line	technical replicate	viability, normalised (%)
EVI5L	SID405527642	Rucaparib	OCI-C5x (clear cell)	1	53.7 (active)
EVI5L	SID405527642	Rucaparib	OCI-C5x (clear cell)	2	41.5 (active)
EVI5L	SID405527642	Rucaparib	OCI-C5x (clear cell)	3	56.8 (active)
EVI5L	SID405527642	Rucaparib	OCI-P5x (serous)	1	77.6 (active)
EVI5L	SID405527642	Rucaparib	OCI-P5x (serous)	2	78.8 (active)
EVI5L	SID405527642	Rucaparib	OCI-P5x (serous)	3	86.4
EVI5L	SID405527642	Vehicle	OCI-C5x (clear cell)	1	74.5 (active)
EVI5L	SID405527642	Vehicle	OCI-C5x (clear cell)	2	51.4 (active)
EVI5L	SID405527642	Vehicle	OCI-C5x (clear cell)	3	63 (active)
EVI5L	SID405527642	Vehicle	OCI-P5x (serous)	1	86.3
EVI5L	SID405527642	Vehicle	OCI-P5x (serous)	2	83.7
EVI5L	SID405527642	Vehicle	OCI-P5x (serous)	3	51.8 (active)
TOP2A	SID405528356	Rucaparib	OCI-C5x (clear cell)	1	57.3 (active)
TOP2A	SID405528356	Rucaparib	OCI-C5x (clear cell)	2	49 (active)
TOP2A	SID405528356	Rucaparib	OCI-C5x (clear cell)	3	45.5 (active)
TOP2A	SID405528356	Rucaparib	OCI-P5x (serous)	1	79.7 (active)
TOP2A	SID405528356	Rucaparib	OCI-P5x (serous)	2	73 (active)
TOP2A	SID405528356	Rucaparib	OCI-P5x (serous)	3	68.3 (active)
TOP2A	SID405528356	Vehicle	OCI-C5x (clear cell)	1	31.8 (active)
TOP2A	SID405528356	Vehicle	OCI-C5x (clear cell)	2	50.1 (active)
TOP2A	SID405528356	Vehicle	OCI-C5x (clear cell)	3	50.1 (active)
TOP2A	SID405528356	Vehicle	OCI-P5x (serous)	1	77.5 (active)
TOP2A	SID405528356	Vehicle	OCI-P5x (serous)	2	55 (active)
TOP2A	SID405528356	Vehicle	OCI-P5x (serous)	3	69.5 (active)
CSNK1G1	SID405527550	Rucaparib	OCI-C5x (clear cell)	1	37.6 (active)
CSNK1G1	SID405527550	Rucaparib	OCI-C5x (clear cell)	2	35.7 (active)
CSNK1G1	SID405527550	Rucaparib	OCI-C5x (clear cell)	3	42.6 (active)
CSNK1G1	SID405527550	Rucaparib	OCI-P5x (serous)	1	54.9 (active)
CSNK1G1	SID405527550	Rucaparib	OCI-P5x (serous)	2	50.2 (active)
CSNK1G1	SID405527550	Rucaparib	OCI-P5x (serous)	3	56.3 (active)
CSNK1G1	SID405527550	Vehicle	OCI-C5x (clear cell)	1	56.8 (active)
CSNK1G1	SID405527550	Vehicle	OCI-C5x (clear cell)	2	42.9 (active)
CSNK1G1	SID405527550	Vehicle	OCI-C5x (clear cell)	3	35 (active)
CSNK1G1	SID405527550	Vehicle	OCI-P5x (serous)	1	50.5 (active)
CSNK1G1	SID405527550	Vehicle	OCI-P5x (serous)	2	48.7 (active)
CSNK1G1	SID405527550	Vehicle	OCI-P5x (serous)	3	50.3 (active)
RTEL1	SID405527263	Rucaparib	OCI-C5x (clear cell)	1	44.4 (active)
RTEL1	SID405527263	Rucaparib	OCI-C5x (clear cell)	2	42.7 (active)
RTEL1	SID405527263	Rucaparib	OCI-C5x (clear cell)	3	35.6 (active)
RTEL1	SID405527263	Rucaparib	OCI-P5x (serous)	1	54.6 (active)
RTEL1	SID405527263	Rucaparib	OCI-P5x (serous)	2	66.2 (active)
RTEL1	SID405527263	Rucaparib	OCI-P5x (serous)	3	59.7 (active)
RTEL1	SID405527263	Vehicle	OCI-C5x (clear cell)	1	41.9 (active)
RTEL1	SID405527263	Vehicle	OCI-C5x (clear cell)	2	36.8 (active)
RTEL1	SID405527263	Vehicle	OCI-C5x (clear cell)	3	47.5 (active)
RTEL1	SID405527263	Vehicle	OCI-P5x (serous)	1	64.2 (active)
RTEL1	SID405527263	Vehicle	OCI-P5x (serous)	2	70.8 (active)
RTEL1	SID405527263	Vehicle	OCI-P5x (serous)	3	82.1
SLX1A	SID405528345	Rucaparib	OCI-C5x (clear cell)	1	43.3 (active)
SLX1A	SID405528345	Rucaparib	OCI-C5x (clear cell)	2	33.4 (active)
SLX1A	SID405528345	Rucaparib	OCI-C5x (clear cell)	3	48.6 (active)
SLX1A	SID405528345	Rucaparib	OCI-P5x (serous)	1	78 (active)
SLX1A	SID405528345	Rucaparib	OCI-P5x (serous)	2	79.2 (active)
SLX1A	SID405528345	Rucaparib	OCI-P5x (serous)	3	96.6
SLX1A	SID405528345	Vehicle	OCI-C5x (clear cell)	1	35.7 (active)
SLX1A	SID405528345	Vehicle	OCI-C5x (clear cell)	2	41.5 (active)
SLX1A	SID405528345	Vehicle	OCI-C5x (clear cell)	3	35.7 (active)
SLX1A	SID405528345	Vehicle	OCI-P5x (serous)	1	70.5 (active)
SLX1A	SID405528345	Vehicle	OCI-P5x (serous)	2	67.7 (active)
SLX1A	SID405528345	Vehicle	OCI-P5x (serous)	3	76.8 (active)
